Results taken from PubChem BioAssay AID504834 (National Center for Advancing Translational Sciences (NCATS), 2011).
In all, about 320,000 compounds went through this assay and about 22,000 (6.9%) were called active. Inconclusive means that the source gave no clear call. Such entries were picked first, then a sample of the others. Calls come from the whole dose curve; as a rule, active = well fitted inhibition curve with a large enough effect; inconclusive = small, poorly fitted or top-dose-only effect, or another doubt; inactive = no such curve, though single readings can be large or run the other way. Potencies beside an inconclusive call are fits to weak or partial responses and may not hold up.

Test: Primary qHTS for delayed death inhibitors of the malarial parasite plastid, 96 hour incubation
Conditions: P. falciparum luciferase reporter growth; series mostly up to 28.7 µM; activity change, negative = inhibition: at the top concentration
In short: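 Readout is luminescence from an integrated firefly luciferase in P. falciparum. Red cells, 2% hematocrit and 0.05% parasitemia final, were cultured with compound through two parasite generations (96 hours) at 37 C, 5% CO2.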
% is set by controls: 0 for no effect and ±100 for the full control effect; potency is the fitted concentration of half-maximal effect.

Compound	Potency	activity change, negative = inhibition
COc1ccc(/C=C2/S/C(=N/N=C3\CC4CCC3(C)C4(C)C)NC2=O)cc1 (configuration not stated)	inconclusive: 2.08 µM [inhibitor, full curve, poor fit]	
Cc1ccc(N2C(=O)C3C(C2=O)C2C=CC3C23CC3)cc1 (configuration not stated)	inconclusive: 11.7 µM [inhibitor, partial curve, poor fit]	
O=C(CCNC(=O)c1ccccc1Cl)Nc1ccncc1		inactive: 0.488%
COC1=C(Nc2ccccc2)C(=O)c2ccccc2C1=O	active: 1.85 µM	
O=C(Cc1ccccc1)N/N=C/c1cc(Br)cc(Br)c1O		inactive: -19.1%
COc1ccc(S(=O)(=O)N2CCN(CC(=O)NC3CCCC3)CC2)cc1	inconclusive: 10.4 µM [inhibitor, single point]	
Cc1cc(C)cc(NC(=O)CSc2ccc(-c3cccs3)nn2)c1	inconclusive: 14.7 µM [inhibitor, single point]	
Cc1ccc(S(=O)(=O)N2CCCC(C(=O)NCCc3ccc4c(c3)OCO4)C2)cc1 (configuration not stated)	inconclusive: 2.62 µM [inhibitor, partial curve, poor fit]	
CS(=O)(=O)N(CCc1ccccc1)CC(=O)N1CCN(c2ccc(F)cc2)CC1	inconclusive: 16.5 µM [inhibitor, single point]	
Cc1cc(C)nc(/N=C(\N)Nc2ccc(S(N)(=O)=O)cc2)n1		inactive: 59.3%
CCOC(=O)c1ccc2ncc(C(=O)OCC)c(Nc3ccc(N4CCOCC4)cc3)c2c1	inconclusive: 18.5 µM [inhibitor, single point]	
COc1ccc(C2C(C(=O)c3ccccc3)=C(C)Nc3nc4ccccc4n32)c(OC)c1 (configuration not stated)	inconclusive: 18.5 µM [inhibitor, single point]	
CCCc1nc2ccccc2c(C(=O)OCC(=O)c2ccc3c(c2)NC(=O)CO3)c1CC	inconclusive: 2.08 µM [inhibitor, full curve]	
Cc1c(S(=O)(=O)N2CCN(C(c3ccccc3)c3ccccc3)CC2)c(=O)n(C)c(=O)n1C	active: 2.33 µM	
COc1ccc(CCNC(=O)c2ccc3c(c2)SC2=NS(=O)(=O)CCN23)cc1	inconclusive: 18.5 µM [inhibitor, partial curve, poor fit]	
Cc1nnc(SCC(=O)N2N=C(c3ccc(Cl)cc3)CC2c2ccco2)[nH]c1=O (configuration not stated)		inactive: 39.4%
COc1ccc(CCNC(=O)c2ccccc2NC(=O)C2=C(C)OCCS2)cc1OC	inconclusive: 18.5 µM [inhibitor, single point]	
CCSc1nnc(NC(=O)CSc2nnc(CNC(=O)c3cc(OC)c(OC)c(OC)c3)o2)s1	inconclusive: 4.15 µM [inhibitor, single point]	
COc1ccc(OC)c(N(CC(=O)Nc2ccc3c(c2)OCO3)S(=O)(=O)c2ccccc2)c1	inconclusive: 9.28 µM [inhibitor, partial curve, poor fit]	
CCc1nnc(NC(=O)CSc2ccc(-c3cccs3)nn2)s1	inconclusive: 10.4 µM [inhibitor, partial curve]	
O=[N+]([O-])c1ccc(NS(=O)(=O)c2cccc3cccnc23)cc1	active: 11.7 µM	
Cc1cc(N2CCOCC2)nc2ccc(NC(=O)CCC(=O)N3CCN(c4ccc(F)cc4)CC3)cc12	inconclusive: 2.94 µM [inhibitor, full curve, poor fit]	
CC(C)C(c1nnnn1C1CCCC1)N1c2ccccc2CC1C (configuration not stated)	inconclusive: 18.5 µM [inhibitor, single point]	

Compound	Potency	activity change, negative = inhibition
COc1ccc(N2C(=O)C(C)C(Cc3ccc(C)cc3)C2=O)cc1 (configuration not stated)	inconclusive: 11.7 µM [inhibitor, partial curve]	
COc1cccc(N2C(=O)C3C(C2=O)C3(c2ccccc2)c2ccccc2)c1 (configuration not stated)	inconclusive: 18.5 µM [inhibitor, single point]	
O=C(NNC(=O)c1ccc(Cl)c(S(=O)(=O)Nc2ccc(Cl)cc2)c1)c1ccc(=O)[nH]c1	inconclusive: 10.4 µM [inhibitor, single point]	
NC(=O)C1=C[C@H](c2ccc(Br)cc2)C[C@H](OCc2ccc(CO)cc2)O1		inactive: 20.4%
CC(Oc1ccc(Cl)cc1Cl)c1nc(-c2ccccn2)no1 (configuration not stated)		inactive: -0.851%
Cc1cc(C)c(S(=O)(=O)Cc2ccccc2)c(OC(C)C)n1	active: 10.4 µM	
CNC(=S)N/N=C/c1ccc(OCc2ccccc2)c(Br)c1	inconclusive: 8.28 µM [inhibitor, partial curve, poor fit]	
COc1ccc(N2Cc3ccccc3C2=O)cc1	active: 2.94 µM	
CCOc1ccc(/C=C2\SC(=S)N(CCC(=O)Nc3cccc(C(=O)O)c3)C2=O)cc1	inconclusive: 3.29 µM [inhibitor, single point]	
COC(=O)CSc1ncnc2c1sc1nc3c(cc12)COC(C)(C)C3	inconclusive: 18.5 µM [inhibitor, single point]	
COc1ccc(-c2cn3cccnc3n2)cc1NC(=O)C(C)C		inactive: -5.45%
CC(Cc1ccccc1)NC(=O)c1cc([N+](=O)[O-])ccc1Cl (configuration not stated)	inconclusive: 16.5 µM [inhibitor, single point]	
COc1cc(NC(=O)C2CCN(c3cnccn3)CC2)cc(OC)c1	active: 2.62 µM	
CCn1cnc2c1c(=O)n(CC(=O)OC)c(=O)n2Cc1ccccc1	inconclusive: 13.1 µM [inhibitor, partial curve, poor fit]	
CC(C)(C)OC(=O)NCc1ccc(NC(=O)c2nc[nH]c2C(=O)N[C@@H](Cc2ccccc2)C(=O)OCc2ccccc2)cc1	active: 4.15 µM	
Cc1cccc(NCc2cccc3ccccc23)n1	inconclusive: 0.0329 µM [inhibitor, full curve, poor fit]	
Cn1c(=O)c2c(n3cnnc13)-c1ccccc1CC21CCCC1	inconclusive: 18.5 µM [inhibitor, single point]	
COc1ccc2c(c1)-c1c(ssc1=S)C(C)(C)N2		inactive: -7.41%
O=S(=O)(c1ccccc1)N1c2cc(Cl)ccc2Oc2nc3ccccc3nc21	inconclusive: 16.5 µM [inhibitor, single point]	
COc1ccc(-c2noc(-c3cc(C)cc(C)c3)n2)cc1OC	inconclusive: 18.5 µM [inhibitor, single point]	
COc1ccc(-c2nnc(SCC(=O)NC3CCCCC3)o2)cc1OC	inconclusive: 18.5 µM [inhibitor, single point]	
Cc1ccc(-c2nn3c(C)nnc3s2)cc1NC(=O)C(C)C	inconclusive: 18.5 µM [inhibitor, single point]	
CCN1C(=O)/C(=C\c2ccncc2)SC1=Nc1ccc(C)c(C)c1	active: 1.85 µM	

Random excerpt: 4 compounds from above.
Compound	Potency	activity change, negative = inhibition
CCn1cnc2c1c(=O)n(CC(=O)OC)c(=O)n2Cc1ccccc1	inconclusive: 13.1 µM [inhibitor, partial curve, poor fit]	
COc1ccc(CCNC(=O)c2ccccc2NC(=O)C2=C(C)OCCS2)cc1OC	inconclusive: 18.5 µM [inhibitor, single point]	
Cc1ccc(-c2nn3c(C)nnc3s2)cc1NC(=O)C(C)C	inconclusive: 18.5 µM [inhibitor, single point]	
CC(Cc1ccccc1)NC(=O)c1cc([N+](=O)[O-])ccc1Cl (configuration not stated)	inconclusive: 16.5 µM [inhibitor, single point]	

Next part

Compound	Potency	activity change, negative = inhibition
COc1ccc(C(=O)n2cnc3ccccc32)cc1[N+](=O)[O-]	inconclusive: 14.7 µM [inhibitor, partial curve, poor fit]	
O=C(CCCOc1ccccc1)Nc1ccccc1C(F)(F)F	inconclusive: 10.4 µM [inhibitor, single point]	
FC(F)(F)c1cnc(N2CCCN(C(=S)Nc3ccccc3)CC2)c(Cl)c1	active: 1.85 µM	
COc1ccc(S(=O)(=O)Nc2ccc3c(c2)n(C)c(=O)n3C)cc1		inactive: 32.4%
CC(C)c1ccc(NC2CCCN(C(=O)CCN3CCCCO3)C2)cc1 (configuration not stated)	inconclusive: 14.7 µM [inhibitor, single point]	
COC(=O)c1ccccc1N1C(=O)[C@@H]2C(c3ccc(F)cc3)=NO[C@@H]2C1=O	inconclusive: 11.7 µM [inhibitor, single point]	
Cc1ccc(C)c(NC(=S)NCCc2c[nH]c3ccccc23)c1	inconclusive: 18.5 µM [inhibitor, partial curve, poor fit]	
CC1C(=O)CCN(C(C)C)C1C (configuration not stated)	inconclusive: 8.28 µM [inhibitor, partial curve, poor fit]	
CC[C@@H](C)C(NC(=O)OC(C)(C)C)c1cn([C@@H](CCCCNC(=O)OC(C)(C)C)C(=O)N2CCN(C(=O)OC(C)(C)C)CC2)nn1 (some centres not stated)	active: 4.15 µM	
C=CCNC(=O)c1cccc(OC2CCN(CC(C)(C)C)CC2)c1	inconclusive: 13.1 µM [inhibitor, single point]	
O=C(NCCCN1CCCCCC1)c1ccc2c(Cl)c3c(nc2c1)CCCC3		inactive: 46.8%
Cc1cc(Cl)ccc1C(=O)C1CCCN(C(=O)c2ccc3ncccc3c2)C1 (configuration not stated)	inconclusive: 13.1 µM [inhibitor, partial curve, poor fit]	
COc1cccc(C(=O)/C(C#N)=N/Nc2cccc(-c3ccnc(C)n3)c2)c1	inconclusive: 3.7 µM [inhibitor, partial curve, poor fit]	
Cc1ccc(-c2cc(O)cc3sc(=O)oc23)cc1C		inactive: -29.3%
O=[N+]([O-])c1cc(S(=O)(=O)N2CCCC2)ccc1NN=C1CCCC1	inconclusive: 8.28 µM [inhibitor, partial curve, poor fit]	
O=C(Nc1ccc([N+](=O)[O-])cc1)Nn1cnnc1		inactive: 65.3%
CCCCN1C(N)=NC[C@@H]1Cc1ccc(O)cc1	active: 4.15 µM	
COc1cccc(NC(=O)C2CC(=O)N=C(N)S2)c1 (configuration not stated)	inconclusive: 18.5 µM [inhibitor, single point]	
CC(=O)Nc1ccc(S(=O)(=O)Nc2nnc(CC(C)(C)C)s2)cc1	inconclusive: 18.5 µM [inhibitor, single point]	
O=C(Nc1ccc(C(=O)O)cc1)/C(=C\c1cccc([N+](=O)[O-])c1)NC(=O)c1ccc(Br)o1	inconclusive: 18.5 µM [inhibitor, single point]	
CN(C)CCn1c2c(c(SCC(=O)N3CCc4ccccc43)nc1=O)CCCC2	inconclusive: 11.7 µM [inhibitor, single point]	
